PubChem BioAssay AID1508597 – Cure First – 2020
Assay: 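Survival screen with siRNA in ovarian cancer cells derived from patients, with or without rucaparib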 (primary screen). Cells: human ovarian carcinoma lines grown from tumours: OCI-P5x (papillary serous) and OCI-C5x (clear cell). Reagent: siRNA pool against human genes, 1.25 pmol siRNA per well. Time to read-out: 72 h or 96 h, depending on the cell culture. Treatment: rucaparib 20 µM (about IC30) or vehicle, present until read-out. Read-out: 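ATP luminescence measured at 72 or 96 h according to the culture, then normalised and expressed as percent viability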. Scale: viability, normalised: higher = more viable cells remaining. Call rule: 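Active when normalised viability falls below 80 percent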. Calls: active = viability under 80%; inactive = viability 80% or more.
Shown is an unselected part of about 2,100 reagents. 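Calls flag viability under 80% in either arm, not effects specific to rucaparib; the reference for percent is not stated.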 A number with no mark means an inactive call. No sequences are given here. The record does not give: the 100% reference.

For SIK2 (salt inducible kinase 2), rucaparib or vehicle Rucaparib, cell line OCI-C5x (clear cell), technical replicate 1 the deposit lists viability, normalised (%) = 35.8 (active). With SIK2 (salt inducible kinase 2), rucaparib or vehicle Rucaparib, cell line OCI-C5x (clear cell), technical replicate 2, the entry reads viability, normalised (%) = 31.5 (active). With SIK2 (salt inducible kinase 2), rucaparib or vehicle Rucaparib, cell line OCI-C5x (clear cell), technical replicate 3, the entry reads viability, normalised (%) = 29.1 (active). SIK2 (salt inducible kinase 2), rucaparib or vehicle Rucaparib, cell line OCI-P5x (serous), technical replicate 1 showed viability, normalised (%) = 87.1. SIK2 (salt inducible kinase 2), rucaparib or vehicle Rucaparib, cell line OCI-P5x (serous), technical replicate 2 gave viability, normalised (%) = 75.6 (active). For SIK2 (salt inducible kinase 2), rucaparib or vehicle Rucaparib, cell line OCI-P5x (serous), technical replicate 3 the deposit lists viability, normalised (%) = 75.9 (active).

With SIK2 (salt inducible kinase 2), rucaparib or vehicle Vehicle, cell line OCI-C5x (clear cell), technical replicate 1, the values are viability, normalised (%) = 39.5 (active). SIK2 (salt inducible kinase 2), rucaparib or vehicle Vehicle, cell line OCI-C5x (clear cell), technical replicate 2 scored viability, normalised (%) = 38.6 (active). SIK2 (salt inducible kinase 2), rucaparib or vehicle Vehicle, cell line OCI-C5x (clear cell), technical replicate 3 scored viability, normalised (%) = 36.7 (active). With SIK2 (salt inducible kinase 2), rucaparib or vehicle Vehicle, cell line OCI-P5x (serous), technical replicate 1 the deposit lists viability, normalised (%) = 69.1 (active). SIK2 (salt inducible kinase 2), rucaparib or vehicle Vehicle, cell line OCI-P5x (serous), technical replicate 2 gave viability, normalised (%) = 69.7 (active). SIK2 (salt inducible kinase 2), rucaparib or vehicle Vehicle, cell line OCI-P5x (serous), technical replicate 3 showed viability, normalised (%) = 61 (active).
